Measured values: article doi:10.1101/2020.12.01.407320

Amino acid sequences for entries named in this document (tags omitted).
UniProt Q14258: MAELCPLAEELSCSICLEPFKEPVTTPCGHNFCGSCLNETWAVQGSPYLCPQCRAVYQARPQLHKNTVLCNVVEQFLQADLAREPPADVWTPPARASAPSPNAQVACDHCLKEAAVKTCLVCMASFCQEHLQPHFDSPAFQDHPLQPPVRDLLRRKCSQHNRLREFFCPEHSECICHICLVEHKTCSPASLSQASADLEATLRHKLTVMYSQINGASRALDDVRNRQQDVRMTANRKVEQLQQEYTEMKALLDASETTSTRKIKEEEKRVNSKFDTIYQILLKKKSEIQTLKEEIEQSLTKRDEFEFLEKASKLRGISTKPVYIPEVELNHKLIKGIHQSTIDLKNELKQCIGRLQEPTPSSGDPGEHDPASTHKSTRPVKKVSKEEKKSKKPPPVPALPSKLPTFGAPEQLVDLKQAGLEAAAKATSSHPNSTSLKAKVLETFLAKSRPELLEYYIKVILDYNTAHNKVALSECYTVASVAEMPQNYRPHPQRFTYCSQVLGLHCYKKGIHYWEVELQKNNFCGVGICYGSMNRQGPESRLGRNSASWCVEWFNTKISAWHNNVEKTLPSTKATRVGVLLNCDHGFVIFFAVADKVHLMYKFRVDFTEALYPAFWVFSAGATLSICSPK

Target: GFP tagged TRIM25 (human (cDNA from HEK293T)) (UniProt Q14258)
Assay: co-IP

endogenous RTN3 (from UniProt O95197-3)
binding: binds

No constants are given. Whether binding was seen depends on the method and setting. Binding seen in cells or lysates may run through a third protein. Binding calls can cover weak binding; strength is not graded here.
